# Results as given in PubChem BioAssay AID504834 (National Center for Advancing Translational Sciences (NCATS), 2011).
# Hit rate of the full screen: of about 320,000 compounds, about 22,000 (6.9%) were called active. Inconclusive means that the source gave no clear call. Such entries were picked first, then a sample of the others. Calls follow the shape of the dose curve; as a rule, active = well fitted inhibition curve with a large enough effect; inconclusive = small, poorly fitted or top-dose-only effect, or another doubt; inactive = no such curve, though single readings can be large or run the other way. Potencies of inconclusive entries are doubtful fits and often do not repeat.
# Assay: Primary qHTS for delayed death inhibitors of the malarial parasite plastid, 96 hour incubation
# Conditions: P. falciparum luciferase reporter growth; series mostly up to 28.7 µM
# Method in brief: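 Plates of compound plus infected erythrocytes (2% hematocrit, 0.05% parasitemia final) incubate 96 hours, 37 C, 5% CO2. Detection reagent added; reduced luminescence from the parasites' luciferase reporter flags inhibition.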
# % is scaled to controls: 0 for no effect and ±100 for the full control effect; potency is read from the fitted curve at half-maximal effect.
Compound,Potency,"activity change, negative = inhibition"
Cc1cccc(C(=O)OCC(=O)Nc2sc3c(c2C#N)CCC3)c1,"inconclusive: 13.1 µM [inhibitor, single point]",
CCNC(=S)N1CCN(c2ccccn2)CC1,"inconclusive: 11.7 µM [inhibitor, partial curve, poor fit]",
COc1ccc(C(=O)N2CCc3cc(OC)c(OC)cc3C2)cc1OC,"inconclusive: 16.5 µM [inhibitor, partial curve, poor fit]",
COCCNC(=O)CN(C(=O)CCC(=O)Nc1ccccn1)c1ccccc1OC,"inconclusive: 4.15 µM [inhibitor, single point]",
CC(=O)N(C1=NCCCS1)c1ccc(Cl)cc1,inactive,
Cc1ccc(-c2nn(-c3ccccc3)cc2/C=N/NC(=O)c2ccncc2)o1,inactive,
CC(=O)Oc1ccc2nc(/C=C/c3ccccc3)oc(=O)c2c1,"inconclusive: 18.5 µM [inhibitor, single point]",
CCOC(=O)c1ccc(N2C(=O)c3n[nH]c(C)c3C2c2ccc(OC)cc2)cc1 (stereo not given),"inconclusive: 11.7 µM [inhibitor, single point]",
CCCCN1CCN=C1Nc1ccccc1,inactive,
O=C(CN1C(=O)NC2(CCCCC2)C1=O)N1CCN(c2ncccn2)CC1,inactive,
Cn1nnnc1Sc1ncnc2scc(-c3ccc(C#N)cc3)c12,active: 1.85 µM,
O=C(NNC(=O)C1CCCN(c2ncccn2)C1)c1ccncc1 (stereo not given),"inconclusive: 10.4 µM [inhibitor, single point]",
O=C(Nc1ccc(CN2CCOCC2)cc1)c1cccs1,inactive,
CCc1ccc(NC(=O)Cn2nnc(C(=O)NCc3ccco3)c2N)cc1,"inconclusive: 10.4 µM [inhibitor, partial curve]",
COC(=O)c1[nH]c2ccc(F)cc2c1NC(=O)Nc1ccc(OC)cc1,"inconclusive: 0.0415 µM [inhibitor, full curve, poor fit]",
COc1ccccc1-c1c(C)nn2c(N3CCC(C)CC3)cc(C)nc12,"inconclusive: 10.4 µM [inhibitor, single point]",
C/C(=N/NS(=O)(=O)c1ccc(C)cc1)c1c[nH]c2ccccc12,active: 1.31 µM,
CCCc1cc(C(=O)N2CCN(C(c3ccccc3)c3ccccc3)CC2)no1,"inconclusive: 10.4 µM [inhibitor, single point]",
CCc1ccccc1NS(=O)(=O)c1ccc2[nH]cc(C(=O)NCc3ccco3)c(=O)c2c1,"inconclusive: 2.62 µM [inhibitor, full curve]",
CCOC(=O)c1c2n(c3ccc(O)cc13)CCCCC2,inactive,
Cc1cccc(C)c1NC(=O)CN(C)C(=O)c1ccccc1Sc1ccccc1C#N,"inconclusive: 11.7 µM [inhibitor, single point]",
COc1ccc(C)cc1NC(=O)C(c1ccccc1)N1CCNC(=O)C1 (stereo not given),inactive,
CN1C(=O)c2ccc(NC(=S)NC(=O)C(C)(C)C)cc2C1=O,"inconclusive: 18.5 µM [inhibitor, single point]",
N/C(=N\OC(=O)c1ccc2c(c1)OCO2)c1ccc(Cl)cc1,"inconclusive: 4.15 µM [inhibitor, partial curve, poor fit]",

# Part of the list above in order of SMILES length, low to high.
Compound,Potency,"activity change, negative = inhibition"
CCCCN1CCN=C1Nc1ccccc1,inactive,
COc1ccc(C)cc1NC(=O)C(c1ccccc1)N1CCNC(=O)C1 (stereo not given),inactive,
CCCc1cc(C(=O)N2CCN(C(c3ccccc3)c3ccccc3)CC2)no1,"inconclusive: 10.4 µM [inhibitor, single point]",

# Following part

Compound,Potency,"activity change, negative = inhibition"
Cc1ccc(-c2nnn(CC(=O)N(Cc3ccco3)C(C(=O)NC(C)(C)C)c3ccc(C)o3)n2)o1 (stereo not given),inactive,
COc1ccc(C)cc1S(=O)(=O)N1CC(C)OC(C)C1 (stereo not given),active: 11.7 µM,
Cc1ccc(C(=O)c2ccccc2C(=O)OCC(=O)NCCc2ccc(Cl)cc2Cl)cc1,"inconclusive: 11.7 µM [inhibitor, single point]",
COc1ccc(-c2[nH]ncc2CN(C)Cc2cnccn2)c(OC)c1,inactive,
O=C(O)c1nn(-c2ccccc2)nc1-c1nn(-c2ccccc2)nc1C(=O)O,"inconclusive: 20.8 µM [inhibitor, partial curve, poor fit]",
O=C(Nc1ccc(SC(F)F)cc1)c1ccc(F)cc1,inactive,
COc1ccccc1C(=O)NC(=O)COC(=O)c1ccc([N+](=O)[O-])cc1Cl,inactive,
Cc1cc(F)ccc1S(=O)(=O)N1CCCOC1CNC(=O)C(=O)NCCCN1CCOCC1 (stereo not given),"inconclusive: 11.7 µM [inhibitor, partial curve, poor fit]",
COC(=O)C(Cc1cnc(Cl)s1)(C(=O)OC)c1ccc([N+](=O)[O-])cc1,"inconclusive: 5.22 µM [inhibitor, partial curve, poor fit]",
Cc1ccc(CN(CC(=O)NCC2CCCO2)S(=O)(=O)c2ccc(C)cc2)cc1 (stereo not given),inactive,
CCCCC1(C)NC(=O)c2c(C)sc(C(=O)OCC)c2N1 (stereo not given),active: 8.28 µM,
O=C(c1ccccc1)N1CCN(c2ccc([N+](=O)[O-])c(NCc3ccco3)c2)CC1,"inconclusive: 11.7 µM [inhibitor, single point]",
CCCN1CCC(NC(=O)CC2C(=O)NCCN2Cc2cccc(OC)c2)CC1 (stereo not given),"inconclusive: 4.15 µM [inhibitor, partial curve]",
Cc1cccc(C)c1-n1c(C)cc(/C=C2\NC(=O)NC2=O)c1C,active: 11.7 µM,
O=C(Nc1ccccc1-c1ccccc1)c1cccs1,"inconclusive: 3.7 µM [inhibitor, partial curve, poor fit]",
CC(=O)NNc1cc(C)nc(N)n1,inactive,
Nc1nc(NCc2ccco2)nc(NC2CCCCC2)c1[N+](=O)[O-],"inconclusive: 1.65 µM [inhibitor, partial curve, poor fit]",
O=C(CCCSc1nc(-c2ccco2)cc(C(F)(F)F)n1)Nc1ccc2c(c1)OCO2,"inconclusive: 4.15 µM [inhibitor, partial curve]",
O=C1/C(=C\c2ccc3ccccc3c2)CCCc2ccccc21,inactive,
CCCCN(CC)CCCNC(=O)CC1Oc2ccccc2NC1=O (stereo not given),"inconclusive: 10.4 µM [inhibitor, partial curve, poor fit]",
O=C(NCCN1CCOCC1)c1cc(Br)ccc1Cl,inactive,
CC1(CO)COC2(OC1)C(=O)Nc1ccccc12 (stereo not given),"inconclusive: 0.928 µM [inhibitor, single point]",
Cc1ccc(CN2CCN(Cc3nc4ccccc4nc3C)CC2CCO)cc1 (stereo not given),"inconclusive: 10.4 µM [inhibitor, single point]",
O=C(Nc1cc(C(=O)Nc2ccccc2C(=O)O)cc(C(=O)Nc2ccccc2C(=O)O)c1)c1ccccc1,"inconclusive: 11.7 µM [inhibitor, single point]",

# Structural class: those above with a COOH group.
Compound,Potency,"activity change, negative = inhibition"
O=C(O)c1nn(-c2ccccc2)nc1-c1nn(-c2ccccc2)nc1C(=O)O,"inconclusive: 20.8 µM [inhibitor, partial curve, poor fit]",
O=C(Nc1cc(C(=O)Nc2ccccc2C(=O)O)cc(C(=O)Nc2ccccc2C(=O)O)c1)c1ccccc1,"inconclusive: 11.7 µM [inhibitor, single point]",

# Continued:

Compound,Potency,"activity change, negative = inhibition"
CCNC(=O)c1c(NC(=O)c2cc(-c3cc(C)ccc3O)n[nH]2)sc2c1CCCC2,"inconclusive: 2.33 µM [inhibitor, full curve, poor fit]",
CCOC(=O)C1CCN(S(=O)(=O)c2ccc(Cl)nc2)CC1,inactive,
COCCNc1nc(SC)nc2sc3c(c12)CCN(C)C3,"inconclusive: 11.7 µM [inhibitor, single point]",
CC1CN(C(=O)CCC(=O)NCc2ccccc2)c2cc(Cl)ccc2O1 (stereo not given),"inconclusive: 13.1 µM [inhibitor, single point]",
CN(C)S(=O)(=O)c1ccc(C(=O)Nc2ccc(S(=O)(=O)NC3=NCCCCC3)cc2)cc1,"inconclusive: 8.28 µM [inhibitor, partial curve, poor fit]",
O=C1NC(=O)C(=Cc2ccc3ccccc3c2)C(=O)N1,"inconclusive: 4.15 µM [inhibitor, single point]",
Cc1[nH]nc2c1C(c1cccc(O)c1)C1=C(CC(C)(C)CC1=O)N2 (stereo not given),,inactive: -1.79% [at 5.75 µM]
COc1cc(/C(C)=N/NC(=O)c2ccc(CSc3nncn3C)cc2)cc(OC)c1OC,active: 13.1 µM,
CN(c1ccccc1)c1nc(N)c([N+](=O)[O-])c(Nc2ccccc2F)n1,"inconclusive: 18.5 µM [inhibitor, single point]",
CN(C(=O)Cn1nc(Cl)ccc1=O)C1CCCN(Cc2ccccc2F)C1 (stereo not given),inactive,
CCOC(=O)[C@H]1[C@H]2COc3ccccc3[C@@H]2N2C(=O)CNC(=O)[C@@]12C,inactive,
CCOCCCn1c(SCC(=O)Nc2ccccc2OC)nc2ccccc2c1=O,"inconclusive: 18.5 µM [inhibitor, single point]",
COc1ccc(OCC(=O)N2CCN(C(C)C)CC2)cc1,"inconclusive: 2.62 µM [inhibitor, full curve, poor fit]",
CC1/C(=N/O)CC(c2ccccc2)N(C)C1c1ccccc1 (stereo not given),"inconclusive: 18.5 µM [inhibitor, single point]",
O=C1Nc2ccccc2O/C1=C\c1ccccc1Br,"inconclusive: 11.7 µM [inhibitor, partial curve, poor fit]",
Cn1cc(-c2nnnn2-c2cccc(C(F)(F)F)c2)c(C(F)(F)F)n1,inactive,
C#CCOCCOCCOCCNc1nc(N2CCN(C(=O)Cn3cc(CCCN=C(N)N)nn3)CC2)nc(N2CCN(C(=O)[C@H](CCCCN)n3cc(CC(C)O)nn3)CC2)n1 (stereo not given in full),"inconclusive: 11.7 µM [inhibitor, single point]",
CCN(CC)CCn1c(SCC(=O)Nc2ccc3c(c2)CCC3)nc2ccccc2c1=O,inactive,
CC(=O)Nc1ccccc1OCC(=O)N(Cc1ccccc1)C(C)C,"inconclusive: 13.1 µM [inhibitor, single point]",
CCCCCCOC(=O)C(C#N)c1nc2ccccc2nc1N1CCOCC1 (stereo not given),"inconclusive: 0.131 µM [inhibitor, full curve, poor fit]",
COc1ccccc1CNC(=O)C1CCCN(S(C)(=O)=O)C1 (stereo not given),"inconclusive: 9.28 µM [inhibitor, single point]",
CCC(C)NC(=O)c1ccc(N2CCC3(CC2)OCCO3)c([N+](=O)[O-])c1 (stereo not given),"inconclusive: 10.4 µM [inhibitor, single point]",
